In the supplement of paper PMC10849652:
The list shows a part of the results.

Chains of the proteins cited; added tags and fusions are not shown. Lines headed by an entry give the natural chain unless they say otherwise; changes in a name come on top.
UniProt O75400: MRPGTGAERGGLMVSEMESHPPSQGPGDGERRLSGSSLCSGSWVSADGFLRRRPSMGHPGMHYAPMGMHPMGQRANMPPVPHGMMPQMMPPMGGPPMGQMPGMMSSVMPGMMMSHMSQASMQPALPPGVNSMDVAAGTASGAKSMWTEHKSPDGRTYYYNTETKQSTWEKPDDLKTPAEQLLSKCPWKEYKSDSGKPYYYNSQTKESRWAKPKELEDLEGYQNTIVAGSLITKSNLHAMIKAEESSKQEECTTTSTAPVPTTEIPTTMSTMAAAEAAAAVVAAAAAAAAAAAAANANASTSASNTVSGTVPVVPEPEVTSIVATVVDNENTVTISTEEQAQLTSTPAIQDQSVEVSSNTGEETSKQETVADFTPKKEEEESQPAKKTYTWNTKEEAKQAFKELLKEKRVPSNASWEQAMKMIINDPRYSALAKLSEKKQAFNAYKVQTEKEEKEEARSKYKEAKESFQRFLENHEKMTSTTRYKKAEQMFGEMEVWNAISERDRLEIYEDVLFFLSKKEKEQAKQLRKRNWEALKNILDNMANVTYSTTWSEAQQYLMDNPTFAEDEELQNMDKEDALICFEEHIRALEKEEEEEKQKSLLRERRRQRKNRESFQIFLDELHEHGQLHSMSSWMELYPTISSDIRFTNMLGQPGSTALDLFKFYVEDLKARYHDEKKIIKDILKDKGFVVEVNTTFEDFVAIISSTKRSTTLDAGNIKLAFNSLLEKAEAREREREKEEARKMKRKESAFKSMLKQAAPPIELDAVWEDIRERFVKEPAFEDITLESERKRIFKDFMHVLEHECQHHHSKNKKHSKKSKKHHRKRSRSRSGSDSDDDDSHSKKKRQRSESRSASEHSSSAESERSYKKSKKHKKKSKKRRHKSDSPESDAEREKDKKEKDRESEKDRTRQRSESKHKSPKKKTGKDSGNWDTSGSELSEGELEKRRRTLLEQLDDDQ
UniProt Q66LE6: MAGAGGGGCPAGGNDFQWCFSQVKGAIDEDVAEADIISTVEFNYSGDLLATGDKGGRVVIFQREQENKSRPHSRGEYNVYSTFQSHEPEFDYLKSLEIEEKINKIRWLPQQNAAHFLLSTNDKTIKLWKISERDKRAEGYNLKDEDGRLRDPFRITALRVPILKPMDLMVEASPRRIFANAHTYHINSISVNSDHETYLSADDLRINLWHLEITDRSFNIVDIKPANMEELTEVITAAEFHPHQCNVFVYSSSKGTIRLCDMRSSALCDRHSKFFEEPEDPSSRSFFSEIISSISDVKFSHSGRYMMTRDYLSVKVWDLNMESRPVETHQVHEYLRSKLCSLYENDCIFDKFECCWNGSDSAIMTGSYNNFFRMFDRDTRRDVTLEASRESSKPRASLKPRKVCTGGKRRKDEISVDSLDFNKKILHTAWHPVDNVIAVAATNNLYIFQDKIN
UniProt P31323, whole entry, looked up: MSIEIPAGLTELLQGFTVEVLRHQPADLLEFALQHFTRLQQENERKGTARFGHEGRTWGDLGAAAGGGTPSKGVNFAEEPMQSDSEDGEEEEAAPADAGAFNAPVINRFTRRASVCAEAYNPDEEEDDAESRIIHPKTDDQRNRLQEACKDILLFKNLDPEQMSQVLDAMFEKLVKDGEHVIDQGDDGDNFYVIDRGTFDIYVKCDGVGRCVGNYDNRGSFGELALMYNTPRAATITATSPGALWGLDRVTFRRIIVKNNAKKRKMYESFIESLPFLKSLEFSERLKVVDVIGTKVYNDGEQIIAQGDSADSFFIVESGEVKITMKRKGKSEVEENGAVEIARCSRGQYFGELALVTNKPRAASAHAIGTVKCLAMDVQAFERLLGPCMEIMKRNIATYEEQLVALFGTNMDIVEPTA
UniProt Q9Y3C6: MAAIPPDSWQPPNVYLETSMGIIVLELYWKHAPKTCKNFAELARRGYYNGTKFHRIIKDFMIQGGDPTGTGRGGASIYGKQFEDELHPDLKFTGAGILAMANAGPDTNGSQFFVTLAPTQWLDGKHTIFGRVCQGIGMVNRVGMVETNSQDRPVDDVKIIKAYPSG
UniProt Q9UMS4: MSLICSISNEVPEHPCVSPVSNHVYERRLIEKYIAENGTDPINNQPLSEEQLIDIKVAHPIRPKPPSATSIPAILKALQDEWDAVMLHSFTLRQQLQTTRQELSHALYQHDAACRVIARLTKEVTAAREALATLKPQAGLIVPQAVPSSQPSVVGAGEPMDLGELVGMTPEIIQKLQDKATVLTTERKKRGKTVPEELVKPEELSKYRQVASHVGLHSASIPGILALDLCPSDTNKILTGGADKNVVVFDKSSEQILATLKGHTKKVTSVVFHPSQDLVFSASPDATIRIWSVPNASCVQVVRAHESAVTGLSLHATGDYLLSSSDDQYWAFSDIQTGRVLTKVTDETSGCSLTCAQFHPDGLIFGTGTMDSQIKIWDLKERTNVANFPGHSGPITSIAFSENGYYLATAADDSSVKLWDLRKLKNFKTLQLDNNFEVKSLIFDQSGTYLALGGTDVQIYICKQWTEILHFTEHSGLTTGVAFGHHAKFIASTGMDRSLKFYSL
UniProt Q13362, whole entry, looked up: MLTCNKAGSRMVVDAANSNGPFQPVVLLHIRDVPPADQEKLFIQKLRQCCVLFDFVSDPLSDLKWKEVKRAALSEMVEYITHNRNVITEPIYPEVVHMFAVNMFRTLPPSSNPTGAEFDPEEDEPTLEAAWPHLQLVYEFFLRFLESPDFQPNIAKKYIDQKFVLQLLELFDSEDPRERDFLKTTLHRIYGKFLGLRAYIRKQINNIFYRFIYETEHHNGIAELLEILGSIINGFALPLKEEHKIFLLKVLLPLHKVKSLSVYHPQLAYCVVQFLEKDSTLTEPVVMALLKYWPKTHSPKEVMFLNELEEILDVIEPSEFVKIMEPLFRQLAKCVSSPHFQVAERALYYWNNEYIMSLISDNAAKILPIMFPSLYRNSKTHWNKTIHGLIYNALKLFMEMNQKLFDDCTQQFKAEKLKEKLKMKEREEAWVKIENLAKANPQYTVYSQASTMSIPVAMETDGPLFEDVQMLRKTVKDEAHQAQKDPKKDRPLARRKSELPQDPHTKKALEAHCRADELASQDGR
UniProt O75170: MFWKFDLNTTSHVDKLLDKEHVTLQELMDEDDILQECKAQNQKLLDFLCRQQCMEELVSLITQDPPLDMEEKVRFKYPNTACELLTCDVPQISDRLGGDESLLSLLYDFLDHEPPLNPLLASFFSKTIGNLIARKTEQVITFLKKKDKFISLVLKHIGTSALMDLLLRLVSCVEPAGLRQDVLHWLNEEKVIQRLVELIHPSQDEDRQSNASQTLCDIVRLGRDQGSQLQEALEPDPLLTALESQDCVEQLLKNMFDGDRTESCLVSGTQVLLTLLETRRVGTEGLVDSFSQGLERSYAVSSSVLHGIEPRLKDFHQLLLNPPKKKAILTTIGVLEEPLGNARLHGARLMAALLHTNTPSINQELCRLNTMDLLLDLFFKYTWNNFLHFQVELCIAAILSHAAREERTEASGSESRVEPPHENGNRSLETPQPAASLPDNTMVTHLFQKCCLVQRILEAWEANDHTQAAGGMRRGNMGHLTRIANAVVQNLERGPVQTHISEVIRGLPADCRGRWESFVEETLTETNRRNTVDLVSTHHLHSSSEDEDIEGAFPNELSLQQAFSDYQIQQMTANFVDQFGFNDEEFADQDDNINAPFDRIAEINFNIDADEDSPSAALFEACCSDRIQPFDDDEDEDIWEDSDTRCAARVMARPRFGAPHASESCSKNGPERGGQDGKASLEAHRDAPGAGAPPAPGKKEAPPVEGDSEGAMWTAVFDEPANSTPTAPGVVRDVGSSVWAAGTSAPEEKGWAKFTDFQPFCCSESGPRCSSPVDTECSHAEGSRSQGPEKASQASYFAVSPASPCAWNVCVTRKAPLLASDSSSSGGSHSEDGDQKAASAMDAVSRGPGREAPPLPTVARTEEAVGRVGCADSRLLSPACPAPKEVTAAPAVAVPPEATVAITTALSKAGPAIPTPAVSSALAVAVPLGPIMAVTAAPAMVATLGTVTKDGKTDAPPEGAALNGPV
UniProt Q12972: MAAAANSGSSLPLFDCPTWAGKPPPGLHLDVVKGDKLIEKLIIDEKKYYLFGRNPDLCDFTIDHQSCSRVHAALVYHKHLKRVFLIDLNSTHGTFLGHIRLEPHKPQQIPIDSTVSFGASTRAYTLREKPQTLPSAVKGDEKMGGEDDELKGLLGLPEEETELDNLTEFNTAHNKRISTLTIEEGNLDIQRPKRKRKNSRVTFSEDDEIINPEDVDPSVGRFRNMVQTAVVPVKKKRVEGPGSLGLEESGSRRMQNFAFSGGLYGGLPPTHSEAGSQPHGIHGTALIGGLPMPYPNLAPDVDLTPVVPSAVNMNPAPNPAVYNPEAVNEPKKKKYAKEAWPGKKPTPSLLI
UniProt Q96LA8, whole entry, looked up: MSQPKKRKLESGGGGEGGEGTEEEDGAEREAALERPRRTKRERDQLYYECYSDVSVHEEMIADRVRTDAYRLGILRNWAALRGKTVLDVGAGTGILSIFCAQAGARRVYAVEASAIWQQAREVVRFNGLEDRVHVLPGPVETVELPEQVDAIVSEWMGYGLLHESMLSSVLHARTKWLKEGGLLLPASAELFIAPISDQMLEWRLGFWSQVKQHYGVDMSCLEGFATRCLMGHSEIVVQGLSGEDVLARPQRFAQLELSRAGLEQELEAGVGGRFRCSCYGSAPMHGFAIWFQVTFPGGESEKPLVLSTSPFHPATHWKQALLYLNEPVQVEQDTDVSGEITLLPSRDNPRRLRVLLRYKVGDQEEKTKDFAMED
UniProt Q6IN85: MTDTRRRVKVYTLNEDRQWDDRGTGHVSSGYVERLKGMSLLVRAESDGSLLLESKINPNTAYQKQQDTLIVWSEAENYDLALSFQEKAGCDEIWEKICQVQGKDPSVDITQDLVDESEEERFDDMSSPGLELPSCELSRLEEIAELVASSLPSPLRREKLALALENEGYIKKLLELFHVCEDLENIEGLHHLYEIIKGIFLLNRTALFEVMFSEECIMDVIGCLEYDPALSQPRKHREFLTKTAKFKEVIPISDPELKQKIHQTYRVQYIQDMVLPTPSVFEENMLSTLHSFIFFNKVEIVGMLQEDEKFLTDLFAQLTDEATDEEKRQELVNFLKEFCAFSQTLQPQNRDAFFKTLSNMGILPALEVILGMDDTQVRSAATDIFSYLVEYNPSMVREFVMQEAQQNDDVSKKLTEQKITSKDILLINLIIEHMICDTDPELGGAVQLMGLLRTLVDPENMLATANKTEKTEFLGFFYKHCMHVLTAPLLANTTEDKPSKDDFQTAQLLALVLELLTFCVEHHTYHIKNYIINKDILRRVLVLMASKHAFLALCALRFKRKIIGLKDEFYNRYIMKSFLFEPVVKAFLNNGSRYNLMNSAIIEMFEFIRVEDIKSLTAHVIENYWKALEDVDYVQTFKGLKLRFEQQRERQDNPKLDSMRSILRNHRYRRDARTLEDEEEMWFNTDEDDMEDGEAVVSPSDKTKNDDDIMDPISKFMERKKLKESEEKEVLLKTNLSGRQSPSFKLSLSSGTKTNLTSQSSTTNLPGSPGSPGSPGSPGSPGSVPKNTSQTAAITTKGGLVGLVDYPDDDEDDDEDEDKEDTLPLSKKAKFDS
UniProt P62136, whole entry, looked up: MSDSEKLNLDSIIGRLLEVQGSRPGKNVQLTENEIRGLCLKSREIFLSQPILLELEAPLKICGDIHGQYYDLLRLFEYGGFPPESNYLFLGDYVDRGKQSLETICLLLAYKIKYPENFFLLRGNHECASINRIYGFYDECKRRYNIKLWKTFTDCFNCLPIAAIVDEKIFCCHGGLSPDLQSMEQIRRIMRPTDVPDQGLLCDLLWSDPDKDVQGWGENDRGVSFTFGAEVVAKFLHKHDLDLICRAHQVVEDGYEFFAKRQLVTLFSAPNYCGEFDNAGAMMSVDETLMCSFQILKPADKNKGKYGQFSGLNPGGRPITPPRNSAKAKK
UniProt P49593: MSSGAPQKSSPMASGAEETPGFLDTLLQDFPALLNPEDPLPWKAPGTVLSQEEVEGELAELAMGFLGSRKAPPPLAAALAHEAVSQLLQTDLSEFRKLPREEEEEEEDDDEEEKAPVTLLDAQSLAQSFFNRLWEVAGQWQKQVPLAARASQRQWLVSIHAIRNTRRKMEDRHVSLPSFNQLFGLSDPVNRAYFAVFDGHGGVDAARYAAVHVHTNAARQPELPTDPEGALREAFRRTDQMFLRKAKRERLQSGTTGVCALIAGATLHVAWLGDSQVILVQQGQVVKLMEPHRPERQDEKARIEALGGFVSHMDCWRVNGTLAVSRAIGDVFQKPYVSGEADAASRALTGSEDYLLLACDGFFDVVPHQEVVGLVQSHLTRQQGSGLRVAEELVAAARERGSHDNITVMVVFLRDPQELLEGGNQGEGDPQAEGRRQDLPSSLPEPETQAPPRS
UniProt P30405: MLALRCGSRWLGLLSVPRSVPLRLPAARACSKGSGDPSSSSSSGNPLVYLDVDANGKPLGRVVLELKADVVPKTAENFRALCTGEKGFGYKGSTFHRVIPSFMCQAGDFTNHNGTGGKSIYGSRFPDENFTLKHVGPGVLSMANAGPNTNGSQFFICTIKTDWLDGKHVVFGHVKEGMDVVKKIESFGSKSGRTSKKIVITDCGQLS

Assays:
Assay in all cases: log2 fold change, soluble protein after heating vs DMSO (PISA); higher = thermal stabilisation; K562 lysate, 10 uM; active = over 0.2 and 3.5 SD of the protein, either way, in both replicates (recomputed)
[1] = compound: Cc1cn(-c2cc(NC(=O)c3ccc(C)c(Nc4nccc(-c5cccnc5)n4)c3)cc(C(F)(F)F)c2)cn1 [nilotinib]
Outline: (§1)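 Soluble protein was defined as the supernatant remaining after 21,000xg for 90 min, following pooling of heated aliquots and adjustment to 0.5% NP-40 at 4°C. Before that, crude K562 extract at 1 mg/mL protein in PBS pH 7.4 with 1 mM MgCl2 was treated with 10 μM compound for 30 min and heated for 3 min across 48°C-58°C. Quantification used TMTpro 16plex LC-MS/MS with channel sums equalised, and values are log-two fold changes in thermal stability relative to solvent controls from duplicates.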

[2] = compound: Cc1nc(Nc2n[nH]c3c2CN(C(=O)N[C@H](CN(C)C)c2ccccc2)C3(C)C)c2sccc2n1
Outline: as §1

[3] = compound: Cc1nc(Nc2ncc(C(=O)Nc3c(C)cccc3Cl)s2)cc(N2CCN(CCO)CC2)n1 [dasatinib]
Outline: as §1

[4] = compound: Cc1ncc(-c2ccnc(Nc3ccc(S(C)(=O)=O)cc3)n2)n1C(C)C
Outline: as §1

[5] = compound: Cn1cc(-c2ccc3c(c2)CCN3C(=O)Cc2cccc(C(F)(F)F)c2)c2c(N)ncnc21
Outline: as §1

[6] = compound: Cn1cc(CNCC2CCN(c3ncc(C(=O)NO)cn3)CC2)c2ccccc21 [quisinostat]
Outline: as §1

[7] = compound: Cn1cncc1[C@@](N)(c1ccc(Cl)cc1)c1ccc2c(c1)c(-c1cccc(Cl)c1)cc(=O)n2C [tipifarnib]
Outline: as §1

[8] = compound: NC(=O)Nc1cc(-c2cccc(F)c2)sc1C(=O)N[C@H]1CCCNC1
Outline: as §1

[9] = compound: NC(=O)c1cnc(N[C@@H]2CCCC[C@@H]2N)nc1Nc1cccc(-n2nccn2)c1
Outline: as §1

[10] = compound: NC1(c2ccc(-c3nc4ccn5c(=O)[nH]nc5c4cc3-c3ccccc3)cc2)CCC1
Outline: as §1

Measured: log2 fold change

PPP1CC isoform 2 (UniProt P36873)
inactive: [1] 0.017 | [2] 0.006 | [3] -0.004 | [4] -0.007 | [5] 0.009 | [6] 0.057 | [7] -0.035 | [8] -0.007 | [9] -0.004 | [10] 0

PRPF40A (UniProt O75400)
inactive: [1] 0.013 | [2] -0.011 | [3] -0.026 | [4] -0.006 | [5] 0.019 | [6] 0 | [7] -0.001 | [8] 0.02 | [9] 0.005 | [10] 0.046

PPP2R2D (UniProt Q66LE6)
inactive: [1] 0.042 | [2] -0.023 | [3] -0.045 | [4] -0.081 | [5] 0.067 | [6] 0.064 | [7] -0.07 | [8] 0.027 | [9] -0.099 | [10] -0.002

PRKAR2B (UniProt P31323)
inactive: [1] 0.023 | [2] -0.078 | [3] -0.104 | [4] 0.013 | [5] 0.031 | [6] 0.073 | [7] 0.019 | [8] -0.1 | [9] -0.028 | [10] 0.013

PPP3CA isoform 2 (UniProt Q08209)
inactive: [2] 0.121 | [3] 0.027 | [4] -0.082 | [5] -0.03 | [6] -0.051 | [7] 0.037 | [8] 0.048 | [9] -0.005 | [10] -0.002
active: [1] 0.241

PRKCD (UniProt Q05655)
inactive: [1] 0.002 | [2] 0.193 | [3] -0.053 | [4] 0.056 | [5] 0 | [6] 0.002 | [7] -0.013 | [8] -0.013 | [9] 0.218 | [10] 0.021

PRKCSH isoform 2 (UniProt P14314)
inactive: [1] -0.004 | [2] 0.099 | [3] 0.088 | [4] 0.116 | [5] 0.003 | [6] -0.157 | [7] -0.081 | [8] -0.079 | [9] 0.038 | [10] -0.192

PPP2R5E (UniProt Q16537)
inactive: [1] -0.002 | [2] 0 | [3] -0.015 | [4] 0.038 | [5] 0.028 | [6] 0.036 | [7] -0.003 | [8] 0.002 | [9] 0.021 | [10] -0.022

PRC1 (UniProt O43663)
inactive: [1] 0.013 | [2] -0.008 | [3] -0.012 | [4] -0.007 | [5] 0.05 | [6] -0.035 | [7] -0.011 | [8] 0.009 | [9] -0.002 | [10] -0.044

PPP1CB (UniProt P62140)
inactive: [1] 0.007 | [2] -0.074 | [3] 0.02 | [4] -0.02 | [5] -0.025 | [6] 0.012 | [7] 0.038 | [8] 0.012 | [9] -0.032 | [10] 0.008

PPIL1 (UniProt Q9Y3C6)
inactive: [1] -0.006 | [2] 0.025 | [3] -0.04 | [4] -0.019 | [5] 0.025 | [6] -0.041 | [7] 0 | [8] 0.016 | [9] 0.021 | [10] 0.069

PRPF19 (UniProt Q9UMS4)
inactive: [1] 0.004 | [2] -0.023 | [3] 0.023 | [4] -0.02 | [5] 0.019 | [6] -0.006 | [7] 0.018 | [8] -0.017 | [9] -0.013 | [10] 0.019

PRDX1 (UniProt Q06830)
inactive: [1] 0.003 | [2] 0.002 | [3] 0.024 | [4] -0.005 | [5] -0.042 | [6] 0.005 | [7] 0.01 | [8] 0.005 | [9] -0.019 | [10] -0.014

PPM1B (UniProt O75688)
inactive: [1] 0.006 | [2] -0.005 | [3] -0.003 | [4] 0.028 | [5] -0.004 | [6] -0.041 | [7] -0.006 | [8] 0.005 | [9] 0.016 | [10] -0.02

PPP2R5C isoform 4 (UniProt Q13362)
inactive: [1] -0.012 | [2] -0.005 | [3] 0.031 | [4] -0.002 | [5] 0.017 | [6] -0.126 | [7] 0.021 | [8] 0.079 | [9] -0.013 | [10] -0.04

PPM1A isoform 3 (UniProt P35813)
inactive: [1] -0.033 | [2] 0.024 | [3] 0.026 | [4] -0.042 | [5] 0.034 | [6] 0.022 | [7] -0.026 | [8] 0.016 | [9] 0.062 | [10] -0.043

PPIL2 (UniProt Q13356)
inactive: [1] -0.032 | [2] 0.014 | [3] 0.064 | [4] 0.008 | [5] -0.004 | [6] -0.063 | [7] -0.038 | [8] 0.018 | [9] -0.063 | [10] 0.011

PRKX (UniProt P51817)
inactive: [1] -0.038 | [2] 0.338 | [3] 0.134 | [4] 0.006 | [5] -0.187 | [7] -0.014 | [9] 0.129

PPP2R5C isoform 2 (UniProt Q13362)
inactive: [1] -0.028 | [2] 0.021 | [3] -0.02 | [4] -0.068 | [5] 0.028 | [7] 0.028 | [8] -0.284 | [10] -0.051
active: [6] 0.347

PPM1B isoform 2 (UniProt O75688)
inactive: [1] 0.039 | [2] -0.057 | [3] 0.024 | [4] -0.086 | [5] -0.03 | [7] -0.04 | [9] 0.078

Two neighbouring entries already listed:
PRC1 (UniProt O43663)
inactive: [1] 0.013 | [2] -0.008 | [3] -0.012 | [4] -0.007 | [5] 0.05 | [6] -0.035 | [7] -0.011 | [8] 0.009 | [9] -0.002 | [10] -0.044

PPP1CB (UniProt P62140)
inactive: [1] 0.007 | [2] -0.074 | [3] 0.02 | [4] -0.02 | [5] -0.025 | [6] 0.012 | [7] 0.038 | [8] 0.012 | [9] -0.032 | [10] 0.008

Following part

PPP6R2 isoform 5 (UniProt O75170)
inactive: [1] 0.025 | [2] -0.041 | [3] -0.027 | [4] 0.023 | [5] 0.006 | [6] -0.01 | [7] -0.003 | [8] 0.014 | [9] 0.023 | [10] -0.021

PPP1R8 (UniProt Q12972)
inactive: [1] 0.004 | [2] -0.011 | [3] 0.03 | [4] 0.034 | [5] 0.025 | [6] -0.023 | [7] 0.013 | [8] -0.007 | [9] 0.01 | [10] -0.024

PRKCI (UniProt P41743)
inactive: [1] 0 | [2] 0.004 | [3] -0.091 | [4] 0 | [5] 0.003 | [6] 0.042 | [7] -0.016 | [8] -0.011 | [9] 0.001 | [10] 0.001

PPT1 (UniProt P50897)
inactive: [1] 0.018 | [2] -0.044 | [3] -0.071 | [4] -0.038 | [5] 0.029 | [6] 0.024 | [7] 0.049 | [8] 0.026 | [9] 0.001 | [10] -0.038

PRKAG1 (UniProt P54619)
inactive: [1] -0.055 | [2] 0.124 | [3] -0.004 | [4] 0.022 | [5] 0.005 | [6] -0.088 | [7] -0.069 | [8] 0.152 | [9] 0.061 | [10] 0.033

PRMT6 (UniProt Q96LA8)
inactive: [1] -0.045 | [2] 0.025 | [3] 0.018 | [4] 0.002 | [5] 0.102 | [6] -0.028 | [7] 0.012 | [8] 0.051 | [9] 0.003 | [10] 0.021

PPP4R3A (UniProt Q6IN85)
inactive: [1] -0.005 | [2] 0.007 | [3] 0.092 | [4] 0.01 | [5] 0.015 | [6] -0.006 | [7] 0.005 | [8] 0.011 | [9] -0.011 | [10] 0.004

PPP1CA (UniProt P62136)
inactive: [1] 0 | [2] -0.021 | [3] 0.004 | [4] 0.006 | [5] 0.02 | [6] -0.039 | [7] 0.015 | [8] -0.023 | [9] -0.003 | [10] 0.008

PPM1F (UniProt P49593)
inactive: [1] 0.031 | [2] -0.013 | [3] -0.015 | [4] 0.02 | [5] -0.001 | [6] 0.026 | [7] 0.015 | [8] -0.001 | [9] 0.028 | [10] 0.008

PPIF (UniProt P30405)
inactive: [1] -0.021 | [2] 0.003 | [3] 0.023 | [4] 0.011 | [5] -0.03 | [6] -0.106 | [7] -0.002 | [8] 0.005 | [9] 0.013 | [10] -0.069
